Earlier results in patent US20160015813A1, “NOVEL AND SYNERGISTIC COMPOSITION OF LECITHIN AND LYSOLECITHIN FOR IMPROVING BIOAVAILABILITY AND SOLUBILITY OF HYDROPHOBIC COMPOUNDS AND EXTRACTS” (priority 2014, published 2016).
Some of these results come from one statement about several compounds together.

Settings: background statement; cited from earlier work

SMILES	bioavailability
COc1cc(/C=C/C(=O)CC(=O)/C=C/c2ccc(O)c(OC)c2)ccc1O [curcumin]	less than 1%
Oc1ccc(C=Cc2cc(O)cc(O)c2)cc1 [resveratrol]	less than 1%
